Results from patent publication US20090202659A1, “Modulation of Peripheral Clocks in Adipose Tissue” (priority 2005, published 2009).
For at least one compound, name, drawing or mass did not settle the structure. Some of these results come from one statement about several compounds together.

Assays:
[1] = system: undifferentiated human ASCs; experiment: Circadian gene expression induction in undifferentiated human ASCs (qRT-PCR); format: cell-based
Description: Human Adipose-Derived Stem Cell (ASCs) Isolation and Expansion. All protocols were reviewed and approved by the Pennington Biomedical Research Center Institutional Research Board (IRB; Baton Rouge, La.) prior to the study. Liposuction aspirates from subcutaneous adipose tissue sites were obtained from female subjects undergoing elective procedures in local plastic surgical offices. Tissues were washed 3-4 times with phosphate-buffered saline (PBS) and suspended in an equal volume of PBS supplemented with 1% bovine serum and 0.1% collagenase type I (Worthington Biochemical Corporation, Lakewood, N.J.) prewarmed to 37° C. The tissue was then placed in a shaking water bath at 37° C. with continuous agitation for 60 min and centrifuged for 5 min at 300-500×g at room temperature. The supernatant, containing mature adipocytes, was aspirated. The pellet was identified as the stromal vascular fraction (SVF). Portions of the SVF were resuspended in cryopreservation medium (10% dimethylsulfoxide, 10% DMEM/F 12 Ham's, 80% fetal bovine serum), frozen at −80° C. in an ethanol-jacketed, closed container, and subsequently stored in liquid nitrogen. Portions of the SVF were used in colony forming unit assays (see below). The remaining cells of the SVF were suspended and plated immediately in T225 flasks in stromal medium (DMEM/F 12 Ham's, 10% fetal bovine serum (Hyclone, Logan, Utah), 100 U penicillin/100 μg streptomycin/0.25 μg Fungizone) at a density of 0.156 ml of tissue digest/sq cm of surface area for expansion and culture. This initial passage of the primary cell culture was referred to as “Passage 0” (P0). […] The cells were passaged by trypsin (0.05%) digestion and plated at a density of 5,000 cells/cm^2 (“Passage 1”). Cell viability and numbers at the time of passage were determined by trypan blue exclusion and hemacytometer cell counts. Cells were passaged repeatedly after achieving a density of 75-90% (approximately 6 days in culture) until Passage 2.
Circadian Induction: The medium was removed from confluent cultures of undifferentiated or adipocyte-differentiated human ASCs in 6 well plates and replaced with DMEM/Ham's F12 medium and 100 U penicillin/100 μg streptomycin/0.25 μg Fungizone alone or supplemented with one of the following: 30% FBS, 1 μM dexamethasone, or 5 μM rosiglitazone. The ASCs were exposed to the inductive agents for 2 hr. A single plate under each condition was harvested for total RNA after 1 hr of induction. After 2 hr, the medium in the remaining plates was replaced with serum free DMEM/Ham's F12 medium and 100 U penicillin/100 μg streptomycin/0.25 μg Fungizone alone.
Quantitative Real-time RT-PCR (qRT-PCR) for Human ASCs: Total RNA was purified from the ASCs as described above for mouse tissues using TriReagent (Molecular Research Center) according to the manufacturer's specifications. Approximately 2 μg of total RNA was reverse transcribed using Moloney Murine Leukemia Virus Reverse Transcriptase (MMLV-RT; Promega), with Oligo dT at 42° C. for 1 hr in a 20 μL reaction. Primers for genes of interest (listed in Table 2) were identified using Primer Express software (Applied Biosystems). […]

[2] = system: adipocyte-differentiated human ASCs; experiment: Circadian gene expression induction in adipocyte-differentiated human ASCs (qRT-PCR); format: cell-based; conditions: 2 hr exposure
Description: Human Adipose-Derived Stem Cell (ASCs) Isolation and Expansion. All protocols were reviewed and approved by the Pennington Biomedical Research Center Institutional Research Board (IRB; Baton Rouge, La.) prior to the study. Liposuction aspirates from subcutaneous adipose tissue sites were obtained from female subjects undergoing elective procedures in local plastic surgical offices. Tissues were washed 3-4 times with phosphate-buffered saline (PBS) and suspended in an equal volume of PBS supplemented with 1% bovine serum and 0.1% collagenase type I (Worthington Biochemical Corporation, Lakewood, N.J.) prewarmed to 37° C. The tissue was then placed in a shaking water bath at 37° C. with continuous agitation for 60 min and centrifuged for 5 min at 300-500×g at room temperature. The supernatant, containing mature adipocytes, was aspirated. The pellet was identified as the stromal vascular fraction (SVF). […] Cell viability and numbers at the time of passage were determined by trypan blue exclusion and hemacytometer cell counts. […]
Quantitative Real-time RT-PCR (qRT-PCR) for Human ASCs: Total RNA was purified from the ASCs as described above for mouse tissues using TriReagent (Molecular Research Center) according to the manufacturer's specifications. […]

human dermal fibroblasts = conditions: Bmal1 promoter/luciferase reporter construct; induced with dexamethasone; S. A. Brown et al., 2005; cited from earlier work
[3] = 1 μM for 2 hr, four donors, FIG. 8B

C[C@@H]1C[C@H]2[C@@H]3CCC4=CC(=O)C=C[C@]4(C)[C@@]3(F)[C@@H](O)C[C@]2(C)[C@@]1(O)C(=O)CO [dexamethasone]
NPAS2 gene expression profile following induction [1, 3]: did not display an oscillatory profile consistently among the four donors | gene expression profile of Bmal1, Cry1, Cry2, Per1, Per3, and Rev-erbα following induction [1, 3]: exhibited an oscillatory profile | Per 3 immediate early response ([1]; undifferentiated ASCs, 2 hr exposure): induced an immediate early response | Per 3 peak expression, time ([1]; undifferentiated ASCs, 2 hr exposure, three donors): 24 to 28 h | Bmal1 elevation and peak levels (zeniths) of gene expression, time ([1]; undifferentiated and adipocyte-differentiated ASCs, 2 hr exposure (30% FBS, 1 μM dexamethasone or 5 μM rosiglitazone), three donors): 8 to 12 h | extent of Per 3 immediate early response [2]: blunted | circadian rhythm of luciferase activity (human dermal fibroblasts): 24.5 h
